No constants are given. Whether binding was seen depends on the method and setting. In cells and extracts the contact can be indirect. Some entries that bind do so weakly or less than the wild type. For some assays here: Where a sequence is shown, tags or fusion partners need not be part of it.
Tests used:
[1] = target: T1, recombinant GST-DOK3 fusion protein (human) (UniProt Q7L591); assay: pull-down; recombinant GST or GST-DOK3 on glutathione-agarose beads incubated with microglial cell lysates (~1 mg; cells stimulated by LPS 1 μM) at 4° C for 2 h, washed 3 times with RIPA buffer, immunoblot for GPR84; only the target purified
T1 sequence: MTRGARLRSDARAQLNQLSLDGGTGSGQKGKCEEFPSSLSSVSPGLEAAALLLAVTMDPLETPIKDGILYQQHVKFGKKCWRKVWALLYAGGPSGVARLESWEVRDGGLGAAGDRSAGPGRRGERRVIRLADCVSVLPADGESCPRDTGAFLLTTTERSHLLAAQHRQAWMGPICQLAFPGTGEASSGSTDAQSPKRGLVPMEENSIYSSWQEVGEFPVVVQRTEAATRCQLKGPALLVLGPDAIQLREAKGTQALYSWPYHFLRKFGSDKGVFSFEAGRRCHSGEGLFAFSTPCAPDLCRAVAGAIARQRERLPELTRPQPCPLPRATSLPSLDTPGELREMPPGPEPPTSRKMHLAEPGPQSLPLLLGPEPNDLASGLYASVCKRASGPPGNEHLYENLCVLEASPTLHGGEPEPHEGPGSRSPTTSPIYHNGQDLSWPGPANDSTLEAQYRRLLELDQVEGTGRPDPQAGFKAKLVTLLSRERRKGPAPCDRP

By UniProt entry, the sequences of proteins in these tests, tags left out.
UniProt Q8CIM5: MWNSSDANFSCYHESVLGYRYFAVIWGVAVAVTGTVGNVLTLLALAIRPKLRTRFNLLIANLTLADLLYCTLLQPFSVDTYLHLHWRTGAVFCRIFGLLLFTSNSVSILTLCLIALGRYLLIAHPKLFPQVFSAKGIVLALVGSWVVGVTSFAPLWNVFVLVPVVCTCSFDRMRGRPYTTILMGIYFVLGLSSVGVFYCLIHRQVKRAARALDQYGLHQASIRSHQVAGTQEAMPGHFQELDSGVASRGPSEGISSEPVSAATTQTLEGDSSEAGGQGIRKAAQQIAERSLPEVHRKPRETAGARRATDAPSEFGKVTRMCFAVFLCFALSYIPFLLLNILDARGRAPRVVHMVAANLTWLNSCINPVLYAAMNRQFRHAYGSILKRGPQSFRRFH

[2] = target: T2, Adaptor molecule downstream of kinase-3 (DOK3), endogenous in BV2 microglia (mouse (endogenous in BV2)) (UniProt Q9QZK7); assay: co-IP; precleared BV2 microglia lysates (RIPA buffer), cells untreated or stimulated with LPS (1 μM) for 4 h; immunoprecipitation with anti-DOK3 antibody and protein A or G agarose, immunoblot with anti-GPR84 antibody
T2 sequence: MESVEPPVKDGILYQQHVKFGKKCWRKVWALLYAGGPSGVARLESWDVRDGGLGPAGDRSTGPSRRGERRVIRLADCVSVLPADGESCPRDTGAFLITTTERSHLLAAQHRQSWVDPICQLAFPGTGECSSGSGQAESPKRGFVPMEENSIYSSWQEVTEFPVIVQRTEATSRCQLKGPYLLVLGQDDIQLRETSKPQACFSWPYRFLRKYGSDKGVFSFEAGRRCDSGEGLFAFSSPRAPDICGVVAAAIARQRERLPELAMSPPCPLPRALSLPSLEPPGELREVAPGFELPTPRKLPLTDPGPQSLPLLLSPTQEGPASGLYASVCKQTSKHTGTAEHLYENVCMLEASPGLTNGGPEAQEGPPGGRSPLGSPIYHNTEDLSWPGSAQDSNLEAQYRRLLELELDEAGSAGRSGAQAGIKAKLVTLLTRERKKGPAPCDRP

binding [1]: binds
binding [2]: binds
Substance: G-protein-coupled receptor 84 (GPR84), endogenous in BV2 microglia (from UniProt Q8CIM5 1-396)

Source: publication PMC7835011
